Laboratory results as given in patent US20240190842A1, “SUBSTITUTED QUINOLINONE-8-CARBONITRILE DERIVATIVES HAVING ANDROGEN DEGRADATION ACTIVITY AND USES THEREOF” (Accutar Biotechnology Inc., priority 2022, published 2024).
For at least one compound, name, drawing or mass did not settle the structure.

Legend:
Type in all cases: cell-based
[1] = biological target: T1, AR wildtype (PC3 AR-WT cells) (Homo sapiens, UniProt P10275); assay: PC3 AR-WT cellular degradation assay (in-cell immunofluorescence of AR); conditions: 24 hours incubation
T1 construct: full length AR wildtype was cloned into CD532A-2 lentivector; expressed in transfected cells; host or cells: PC3 cells (ATCC), lentiviral transduction, puromycin selected
T1 sequence (P10275 1-920): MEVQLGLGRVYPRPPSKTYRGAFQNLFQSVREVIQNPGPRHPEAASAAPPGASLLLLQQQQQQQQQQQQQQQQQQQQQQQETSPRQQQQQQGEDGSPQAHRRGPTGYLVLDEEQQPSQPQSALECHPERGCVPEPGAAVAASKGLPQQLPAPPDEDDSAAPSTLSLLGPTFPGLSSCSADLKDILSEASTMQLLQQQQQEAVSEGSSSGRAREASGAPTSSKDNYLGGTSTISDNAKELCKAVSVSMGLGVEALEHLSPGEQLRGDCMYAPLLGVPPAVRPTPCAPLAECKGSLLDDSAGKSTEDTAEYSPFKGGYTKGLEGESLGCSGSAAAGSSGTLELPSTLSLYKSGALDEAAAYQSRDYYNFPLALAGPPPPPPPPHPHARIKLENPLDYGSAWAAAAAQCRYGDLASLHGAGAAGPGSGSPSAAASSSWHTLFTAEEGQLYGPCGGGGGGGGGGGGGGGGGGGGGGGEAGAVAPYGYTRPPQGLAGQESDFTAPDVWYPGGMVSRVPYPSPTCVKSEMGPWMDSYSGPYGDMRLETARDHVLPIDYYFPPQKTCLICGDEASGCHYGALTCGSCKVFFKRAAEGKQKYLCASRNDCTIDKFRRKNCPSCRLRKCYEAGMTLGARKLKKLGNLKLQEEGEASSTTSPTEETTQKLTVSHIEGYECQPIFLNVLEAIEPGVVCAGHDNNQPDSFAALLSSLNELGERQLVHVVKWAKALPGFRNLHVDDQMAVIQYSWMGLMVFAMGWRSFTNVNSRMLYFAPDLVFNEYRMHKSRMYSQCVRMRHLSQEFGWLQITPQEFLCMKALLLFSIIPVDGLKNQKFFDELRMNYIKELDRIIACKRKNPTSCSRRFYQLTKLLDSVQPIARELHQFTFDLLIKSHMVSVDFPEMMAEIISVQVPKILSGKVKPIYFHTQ

VCAP cells = assay: Inhibition of R1881 stimulated cell growth in VCAP cells (CellTiter-Glo); conditions: 10% CSS, 6 days
Procedure: (§1) LNCAP and VCAP cells were seeded in 96-well plates at 5000 (LNCAP) and 6000 (VCAP) cells/well in phenol red-free RPM11640 supplemented with 10% charcoal stripped serum (CSS), and then incubated at 37° C. overnight. The following day, the test compound was administered to the cells by using 1000× compound stock solution prepared in DMSO at various concentrations. 1000× compound stock solution was first diluted 1:100 in phenol red-free RPM11640 supplemented with 10% CSS and 1 nM R1881 to prepare the 10× treatment solutions containing serial dilutions of AC176 together in the presence of 1 nM, and then 10 uL compound medium was added to each well in the cell plates. After administration of the compound, the cells were then incubated at 37° C. for 6 days. Upon completion, the plates were equilibrated at room temperature for approximately 10 minutes. 100 ul of CellTiter-Glo® 3D Reagent (Promega) was added to each well. The plates were then incubated at room temperature for 30 minutes and luminescence was recorded by EnSpire plate reader (PerkinElmer). The results are shown in Table 5, which summarizes the growth inhibition (G150) in LNCAP and VCAP cells with exemplary compounds of the present disclosure.

LNCAP cells = assay: Inhibition of R1881 stimulated cell growth in LNCAP cells (CellTiter-Glo); conditions: 10% CSS, 6 days
Procedure: as §1

Compound | DC50 [1] | GI50 (VCAP cells) | GI50 (LNCAP cells)
CC1(C)[C@H](NC(=O)c2ccc(N3CCC(CN4CCN(c5ccc6c(c5)CN([C@H]5CCC(=O)NC5=O)C6=O)CC4)CC3)c(F)c2)C(C)(C)[C@H]1Oc1ccc(C#N)c2[nH]ccc(=O)c12 (relative stereo) [Compound 29, N-((1,3-trans)-3-((8-cyano-4-oxo-1,4-dihydroquinolin-5-yl)oxy)-2,2,4,4-tetramethylcyclobutyl)-4-(4-((4-(2-((S)-2,6-dioxopiperidin-3-yl)-1-oxoisoindolin-5-yl)piperazin-1-yl)methyl)piperidin-1-yl)-3-fluorobenzamide] | ≤ 5 nM |  | 
CC1(C)[C@H](NC(=O)c2ccc(N3CC(CN4CCN(c5ccc6c(c5)CN([C@H]5CCC(=O)NC5=O)C6=O)CC4)C3)cc2)C(C)(C)[C@H]1Oc1ccc(C#N)c2[nH]c(=O)ccc12 (relative stereo) [Compound 3, N-((1,3-trans)-3-((8-cyano-2-oxo-1,2-dihydroquinolin-5-yl)oxy)-2,2,4,4-tetramethylcyclobutyl)-4-(3-((4-(2-((S)-2,6-dioxopiperidin-3-yl)-1-oxoisoindolin-5-yl)piperazin-1-yl)methyl)azetidin-1-yl)benzamide] | ≤ 5 nM | 50 to 500 nM | ≤ 50 nM
